Assay results reported in patent US12233115B2, “Long-acting parathyroid hormone” (Extend Biosciences, Inc., priority 2022, dated 2025).
Part of at least one peptide drawing is inferred or uncertain, most often the ends. At least one structure is not confirmed: it was looked up by name or label, or the drawing left a doubt.

Assay: Precipitation on agitation (OD600 after shaking in 96-well plate)
Type: physicochemical
Details: Table 14C: 1 mg/ml

C=C1CC[C@H](OCCCNC(=O)CCOCCOCCOCCOCCOCCOCCOCCOCCOCCOCCOCCOCCOCCOCCOCCOCCOCCOCCOCCOCCOCCOCCOCCOCCOCCOCCOCCOCCOCCOCCOCCOCCOCCOCCOCCOCCNC(=O)CCN2C(=O)CC(SC[C@H](NC(=O)[C@H](Cc3ccccc3)NC(=O)[C@H](CC(N)=O)NC(=O)[C@H](Cc3c[nH]cn3)NC(=O)[C@@H](NC(=O)[C@H](CC(=O)O)NC(=O)[C@H](CCC(N)=O)NC(=O)[C@H](CC(C)C)NC(=O)[C@H](CCCCN)NC(=O)[C@H](CCCCN)NC(=O)[C@H](CCCNC(=N)N)NC(=O)[C@H](CC(C)C)NC(=O)[C@H](Cc3c[nH]c4ccccc34)NC(=O)[C@H](CCC(=O)O)NC(=O)[C@@H](NC(=O)[C@H](CCCNC(=N)N)NC(=O)[C@H](CCC(=O)O)NC(=O)[C@H](CCSC)NC(=O)[C@H](CO)NC(=O)[C@H](CC(N)=O)NC(=O)[C@H](CC(C)C)NC(=O)[C@H](Cc3c[nH]cn3)NC(=O)[C@H](CCCCN)NC(=O)CNC(=O)[C@H](CC(C)C)NC(=O)[C@H](CC(N)=O)NC(=O)[C@H](Cc3c[nH]cn3)NC(=O)[C@H](CCSC)NC(=O)[C@H](CC(C)C)NC(=O)[C@H](CCC(N)=O)NC(=O)[C@@H](NC(=O)[C@H](CCC(=O)O)NC(=O)[C@H](CO)NC(=O)[C@@H](NC(=O)[C@@H](N)CO)C(C)C)[C@@H](C)CC)C(C)C)C(C)C)C(N)=O)C2=O)C/C1=C/C=C1\CCC[C@]2(C)[C@@H]([C@H](C)CCCC(C)(C)O)CC[C@@H]12 (stereo partly shown) [EXT608]
OD600 (10 mM acetate pH 4.5, 4.5% mannitol, PS80 0.10%, shaking 162 h): 0.067 | OD600 (10 mM acetate pH 4.5, 4.5% mannitol, PS80 0.25%, shaking 18 h): 0.000 | OD600 (10 mM acetate pH 4.5, 4.5% mannitol, PS80 0.25%, shaking 42 h): 0.001 | OD600 (10 mM acetate pH 4.5, 4.5% mannitol, PS80 0.25%, shaking 66 h): 0.004 | OD600 (10 mM acetate pH 4.5, 4.5% mannitol, PS80 0.25%, shaking 90 h): 0.001 | OD600 (10 mM acetate pH 4.5, 4.5% mannitol, PS80 0.25%, shaking 162 h): 0.013 | OD600 (10 mM acetate pH 5.0, 4.5% mannitol, PS80 0%, shaking 18 h): 0.000 | OD600 (10 mM acetate pH 5.0, 4.5% mannitol, PS80 0%, shaking 42 h): 0.504 | OD600 (10 mM acetate pH 5.0, 4.5% mannitol, PS80 0%, shaking 66 h): 0.338 | OD600 (10 mM acetate pH 5.0, 4.5% mannitol, PS80 0%, shaking 90 h): 0.237 | OD600 (10 mM acetate pH 5.0, 4.5% mannitol, PS80 0%, shaking 162 h): 0.222 | OD600 (10 mM acetate pH 5.0, 4.5% mannitol, PS80 0.05%, shaking 18 h): 0.004 | OD600 (10 mM acetate pH 5.0, 4.5% mannitol, PS80 0.05%, shaking 42 h): 0.208 | OD600 (10 mM acetate pH 5.0, 4.5% mannitol, PS80 0.05%, shaking 66 h): 0.362 | OD600 (10 mM acetate pH 5.0, 4.5% mannitol, PS80 0.05%, shaking 90 h): 0.513 | OD600 (10 mM acetate pH 5.0, 4.5% mannitol, PS80 0.05%, shaking 162 h): 0.570 | OD600 (10 mM acetate pH 5.0, 4.5% mannitol, PS80 0.10%, shaking 18 h): 0.001 | OD600 (10 mM acetate pH 5.0, 4.5% mannitol, PS80 0.10%, shaking 42 h): 0.002 | OD600 (10 mM acetate pH 5.0, 4.5% mannitol, PS80 0.10%, shaking 66 h): 0.383 | OD600 (10 mM acetate pH 5.0, 4.5% mannitol, PS80 0.10%, shaking 90 h): 0.649 | OD600 (10 mM acetate pH 5.0, 4.5% mannitol, PS80 0.10%, shaking 162 h): 0.678 | OD600 (10 mM acetate pH 5.0, 4.5% mannitol, PS80 0.25%, shaking 18 h): 0.001 | OD600 (10 mM acetate pH 5.0, 4.5% mannitol, PS80 0.25%, shaking 42 h): 0.007 | OD600 (10 mM acetate pH 5.0, 4.5% mannitol, PS80 0.25%, shaking 66 h): 0.006 | OD600 (10 mM acetate pH 5.0, 4.5% mannitol, PS80 0.25%, shaking 90 h): 0.132 | OD600 (10 mM acetate pH 5.0, 4.5% mannitol, PS80 0.25%, shaking 162 h): 0.210 | OD600 (10 mM acetate pH 5.5, 4.5% mannitol, PS80 0%, shaking 18 h): 0.607 | OD600 (10 mM acetate pH 5.5, 4.5% mannitol, PS80 0%, shaking 42 h): 0.551 | OD600 (10 mM acetate pH 5.5, 4.5% mannitol, PS80 0%, shaking 66 h): 0.359 | OD600 (10 mM acetate pH 5.5, 4.5% mannitol, PS80 0%, shaking 90 h): 0.388 | OD600 (10 mM acetate pH 5.5, 4.5% mannitol, PS80 0%, shaking 162 h): 0.316 | OD600 (10 mM acetate pH 5.5, 4.5% mannitol, PS80 0.05%, shaking 18 h): 0.000 | OD600 (10 mM acetate pH 5.5, 4.5% mannitol, PS80 0.05%, shaking 42 h): 0.314 | OD600 (10 mM acetate pH 5.5, 4.5% mannitol, PS80 0.05%, shaking 66 h): 0.572 | OD600 (10 mM acetate pH 5.5, 4.5% mannitol, PS80 0.05%, shaking 90 h): 0.388 | OD600 (10 mM acetate pH 5.5, 4.5% mannitol, PS80 0.05%, shaking 162 h): 0.324 | OD600 (10 mM acetate pH 5.5, 4.5% mannitol, PS80 0.10%, shaking 18 h): 0.003 | OD600 (10 mM acetate pH 5.5, 4.5% mannitol, PS80 0.10%, shaking 42 h): 0.331 | OD600 (10 mM acetate pH 5.5, 4.5% mannitol, PS80 0.10%, shaking 66 h): 0.657 | OD600 (10 mM acetate pH 5.5, 4.5% mannitol, PS80 0.10%, shaking 90 h): 0.712 | OD600 (10 mM acetate pH 5.5, 4.5% mannitol, PS80 0.10%, shaking 162 h): 0.718 | OD600 (10 mM acetate pH 5.5, 4.5% mannitol, PS80 0.25%, shaking 18 h): 0.000 | OD600 (10 mM acetate pH 5.5, 4.5% mannitol, PS80 0.25%, shaking 42 h): 0.004 | OD600 (10 mM acetate pH 5.5, 4.5% mannitol, PS80 0.25%, shaking 66 h): 0.136 | OD600 (10 mM acetate pH 5.5, 4.5% mannitol, PS80 0.25%, shaking 90 h): 0.247 | OD600 (10 mM acetate pH 5.5, 4.5% mannitol, PS80 0.25%, shaking 162 h): 0.309
